Measurements: paper PMC8320060
Results are given in words; binding and its absence hold for the method and conditions named. In cells and extracts the contact can be indirect. Some results given as binding are weak or reduced against the parent protein; the word gives no strength. Tags and fused reporters may be left off the sequences shown.

By UniProt entry, the sequences of proteins in these tests, tags left out.
UniProt P60953: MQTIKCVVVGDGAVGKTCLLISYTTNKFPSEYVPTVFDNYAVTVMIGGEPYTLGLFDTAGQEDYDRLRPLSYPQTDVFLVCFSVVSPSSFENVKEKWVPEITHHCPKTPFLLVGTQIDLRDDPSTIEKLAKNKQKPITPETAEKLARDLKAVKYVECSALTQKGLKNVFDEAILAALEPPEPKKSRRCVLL
UniProt P61586: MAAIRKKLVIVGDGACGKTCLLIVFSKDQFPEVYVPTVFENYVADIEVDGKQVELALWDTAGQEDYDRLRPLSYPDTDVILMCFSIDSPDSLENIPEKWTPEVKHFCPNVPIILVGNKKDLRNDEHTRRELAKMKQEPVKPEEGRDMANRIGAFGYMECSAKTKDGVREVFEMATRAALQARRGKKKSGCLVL

What was measured:
[1] = target: T1, RHOGDIA-FLAG (from pcDNA3.1-RHOGDIA) (UniProt P52565); assay: co-IP; A549 and Calu-1 cells co-transfected with HHEX siRNA (or control) and pcDNA3.1-RHOGDIA; lysate immunoprecipitated with anti-FLAG antibody; western blot
T1 sequence: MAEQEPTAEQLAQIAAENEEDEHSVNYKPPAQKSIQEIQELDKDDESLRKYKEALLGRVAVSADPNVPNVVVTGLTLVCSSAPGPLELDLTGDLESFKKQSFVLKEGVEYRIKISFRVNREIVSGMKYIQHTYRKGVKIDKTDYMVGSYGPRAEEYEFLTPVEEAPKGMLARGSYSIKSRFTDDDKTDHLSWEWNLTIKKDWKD

[2] = target: T2, Hhex-HA (human hematopoietically expressed homeobox, from pcDNA3.1-HHEX-HA) (human) (UniProt Q03014); assay: co-IP; 293FT cells co-transfected with pcDNA3.1-HHEX-HA and pcDNA3.1-RHOA-MYC or pcDNA3.1-CDC42-MYC; lysate immunoprecipitated with anti-HA or anti-MYC antibody; western blot
T2 sequence: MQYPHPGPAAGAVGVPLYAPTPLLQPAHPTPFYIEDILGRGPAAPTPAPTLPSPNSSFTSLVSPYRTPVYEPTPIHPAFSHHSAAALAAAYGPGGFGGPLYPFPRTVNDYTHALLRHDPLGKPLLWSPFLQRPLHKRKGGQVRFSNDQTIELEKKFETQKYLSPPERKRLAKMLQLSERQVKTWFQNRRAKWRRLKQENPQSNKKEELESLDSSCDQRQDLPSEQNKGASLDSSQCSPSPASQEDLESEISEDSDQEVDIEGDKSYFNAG

[3] = target: T2, Hhex-HA (human hematopoietically expressed homeobox, from pcDNA3.1-HHEX-HA) (human); assay: co-IP; HEK 293T cells co-transfected with pcDNA3.1-HHEX-HA, pcDNA3.1-RHOGDIA-FLAG and pcDNA3.1-RHOA-MYC or pcDNA3.1-CDC42-MYC; lysate immunoprecipitated with anti-HA antibody; western blot

Row | Substance | binding [1] | binding [2] | binding [3]
1 | CDC42, endogenous in A549 and Calu-1 cells (from UniProt P60953 1-191) | binds | – | –
2 | CDC42-MYC (from pcDNA3.1-CDC42-MYC) (from UniProt P60953 1-191) | – | binds | binds
3 | RHOA, endogenous in A549 and Calu-1 cells (from UniProt P61586 1-193) | binds | – | –
4 | RHOA-MYC (from pcDNA3.1-RHOA-MYC) (from UniProt P61586 1-193) | – | binds | binds
